Measurements reported in PubChem BioAssay AID504784 (Drosophila RNAi Screening Center, 2011)

- Assay: 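Genome-wide knock-down for genes giving too much or too little stored lipid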 (primary screen)
- Cell system: Drosophila Kc167 embryonic cells
- Reagent: long dsRNA against Drosophila genes, about 250 ng dsRNA per well
- Time to read-out: 4 days
- Conditions: cells fed 400 µM oleic acid bound to BSA
- Measurement: 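Cells imaged and segmented; ratio of lipid droplet area to nuclear area, log-transformed, then normalised as a B-score over the screen; higher means more stored lipid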
- Scale: droplet/nuclear area B-score: higher = more stored lipid (overstorage)
In all, the deposit lists about 17,000 reagents; shown is a random part of those with a known target gene and a result. 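Each column is one replicate's B-score; the combined score over replicates was not deposited, so single values may mislead.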 A plus sign joins genes that one reagent is predicted to hit. Reagent sequences are not shown.

target gene | dsRNA | droplet/nuclear area B-score, replicate 1 | droplet/nuclear area B-score, replicate 2 | droplet/nuclear area B-score, replicate 3
CG3663 (GeneID 37944) | DRSC04402 | 0.445 | -0.148 | –
side-IV (GeneID 41657) | DRSC14833 | 0.828 | -0.552 | –
CG30020 (GeneID 36156) | DRSC06252 | 0.0278 | -0.149 | –
CG30020 (GeneID 36156) | DRSC06730 | -0.253 | 0.508 | –
CG44836 (GeneID 39825) | DRSC09915 | -0.293 | 0.000943 | –
CG12115 (GeneID 31853) | DRSC17811 | 1.79 | 3.19 | -0.0491
CG17377 (GeneID 33954) | DRSC00950 | 0.265 | -1.06 | –
CG17377 (GeneID 33954) | DRSC02615 | 0.659 | 0.0314 | –
CG17377 (GeneID 33954) | DRSC21811 | 0.521 | 1.43 | –
CG17154 (GeneID 39373) | DRSC10253 | -1.33 | -0.0375 | –
CG9175 (GeneID 33862) | DRSC03153 | 1.41 | 2.21 | –
TfIIFbeta (GeneID 41290) | DRSC16884 | 0.974 | 1.13 | –
TfIIFbeta (GeneID 41290) | DRSC21447 | -0.447 | 1.32 | –
RpL30 (GeneID 44059) | DRSC02087 | 4.5 | 7.16 | –
CG4297 (GeneID 33222) | DRSC00651 | 0.74 | -0.767 | –
CycK (GeneID 49816) | DRSC03714 | 0.241 | 3.02 | –
msn (GeneID 44030) | DRSC07990 | 0.648 | 1.15 | –
msn (GeneID 44030) | DRSC08498 | -0.396 | -0.927 | –
CG11438 (GeneID 40469) | DRSC11660 | 0.242 | 1.35 | –
CG7655 (GeneID 42128) | DRSC16275 | 0.0591 | 0.779 | –
Rrp1 (GeneID 33500) | DRSC00784 | 0.0634 | -0.246 | 0.958
CG13640 (GeneID 42967) | DRSC14639 | 0.08 | -1.28 | –
INPP5E (GeneID 39404) | DRSC09723 | 0.124 | -0.474 | –
tamo (GeneID 37864) | DRSC04446 | 1.15 | 0.186 | –
CG31807 (GeneID 318953) | DRSC01550 | 2.02 | 0.863 | –
Shmt (GeneID 31524) | DRSC18264 | 0.468 | -0.112 | –
CG6709 + Hez | DRSC10165 | 1.41 | -0.101 | –
CG6709 + Hez | DRSC10698 | -0.651 | -0.348 | –
CG7011 + Prp31 | DRSC10760 | 0.163 | -0.833 | 0.534
Roc1a (GeneID 31014) | DRSC18483 | -5.48 | -3.67 | –
CG16790 (GeneID 41155) | DRSC15156 | -1.46 | -0.827 | –
Pde8 (GeneID 37741) | DRSC04503 | -0.0293 | -1.63 | –
Swip-1 (GeneID 35158) | DRSC02083 | 0.0667 | 0.232 | –
Swip-1 (GeneID 35158) | DRSC02084 | -1.6 | 0.429 | –
GNBP-like3 (GeneID 37313) | DRSC06385 | -0.478 | -0.887 | –
Mst77F (GeneID 40304) | DRSC11871 | -1.51 | 0.738 | –
18w (GeneID 37277) | DRSC05029 | -0.656 | 0.18 | –
CG11658 (GeneID 39319) | DRSC09852 | 1.19 | 0.479 | –
CG30466 (GeneID 246629) | DRSC05556 | -1.58 | 0.427 | –
nclb (GeneID 36150) | DRSC07009 | 1.96 | 1.6 | –
Tektin-A (GeneID 34934) | DRSC01921 | -0.0018 | 0.0673 | –
CG32448 (GeneID 318032) | DRSC22657 | 0.183 | 0.0511 | –
Naa20A (GeneID 32962) | DRSC19579 | 0.441 | -0.143 | –
CG10657 (GeneID 39423) | DRSC09768 | -0.485 | -0.599 | 1.8
mRpL18 (GeneID 36406) | DRSC06142 | 2.19 | 3.71 | –
fig (GeneID 43511) | DRSC16270 | 0.909 | -0.943 | –
CG14417 (GeneID 31274) | DRSC18638 | -0.792 | -1.15 | –
Sdr (GeneID 41809) | DRSC15517 | -0.15 | 0.0199 | –
IntS10 (GeneID 38444) | DRSC08173 | 0.921 | 2.48 | –
ric8a (GeneID 31874) | DRSC18093 | 1.86 | -0.72 | 0.969
Zip102B (GeneID 43786) | DRSC17155 | -0.282 | 0.359 | 1.35
CG6565 (GeneID 34749) | DRSC02970 | -0.981 | 1.36 | –
CG4364 (GeneID 34287) | DRSC02742 | 0.881 | 1.47 | –
trbd (GeneID 41179) | DRSC16494 | 2.3 | -0.234 | –
CG31102 (GeneID 326118) | DRSC14260 | 1.73 | 0.0265 | –
TrpA1 (GeneID 39015) | DRSC10544 | 0.619 | 1.96 | –
Atu (GeneID 40684) | DRSC12123 | 1.43 | 0.112 | –
DIP-alpha (GeneID 31322) | DRSC17891 | -1.53 | -0.0156 | –
DIP-alpha (GeneID 31322) | DRSC17892 | 0.316 | -3.29 | –
DIP-alpha (GeneID 31322) | DRSC23275 | 0.555 | 1.89 | –
CG14333 (retired record) (GeneID 42088) | DRSC14812 | 0.379 | -1.25 | –
CG14333 (retired record) (GeneID 42088) | DRSC15769 | -0.598 | -0.0181 | –
Cyp49a1 (GeneID 36105) | DRSC06737 | -0.841 | -1.76 | –
Cyp49a1 (GeneID 36105) | DRSC07367 | -0.351 | -0.883 | –
CG11722 (GeneID 41227) | DRSC14358 | 2.7 | 1.98 | –
CG7330 (GeneID 40007) | DRSC10813 | -1.7 | -0.0566 | –
CG7330 (GeneID 40007) | DRSC10814 | 0.00504 | 0.297 | –
Snx3 (GeneID 41551) | DRSC16027 | -1.84 | -0.0642 | –
beat-VI (GeneID 43377) | DRSC14474 | 0.598 | 1.87 | –
beat-VI (GeneID 43377) | DRSC14727 | 0.273 | -0.0486 | –
Ppt1 (GeneID 31805) | DRSC17806 | 1.79 | -0.576 | –
shep (GeneID 38605) | DRSC09765 | -0.0288 | 0.00367 | –
shep (GeneID 38605) | DRSC09771 | -0.837 | 0.673 | –
Oatp74D (GeneID 39954) | DRSC09491 | 0.364 | -0.802 | –
Oatp74D (GeneID 39954) | DRSC10883 | 0.243 | -0.455 | 0.249
CG14829 (GeneID 38792) | DRSC10199 | 0.51 | 3.74 | –
Sec23 (GeneID 40694) | DRSC12387 | -0.543 | -0.508 | -3.22
CG33257 (GeneID 2768960) | DRSC09917 | -1.35 | 1.27 | –
ND-B14.5A (GeneID 31190) | DRSC18500 | 0.599 | -3.08 | –
CG30485 (GeneID 246644) | DRSC06376 | -0.134 | -0.139 | –
CG31191 (GeneID 42477) | DRSC15214 | 0.218 | 0.431 | –
CG31191 (GeneID 42477) | DRSC15215 | 1.54 | 0.541 | –
CG9877 (GeneID 37666) | DRSC04587 | 1.88 | 0.0609 | –
